# Article PMC12501352
# Results are given in words; binding and its absence hold for the method and conditions named. In cells and extracts the contact can be indirect. Some entries that bind do so weakly or less than the wild type.
# T1: USP15 (human (endogenous in Mac-ADSCs)) (UniProt Q9Y4E8)
# T1 sequence: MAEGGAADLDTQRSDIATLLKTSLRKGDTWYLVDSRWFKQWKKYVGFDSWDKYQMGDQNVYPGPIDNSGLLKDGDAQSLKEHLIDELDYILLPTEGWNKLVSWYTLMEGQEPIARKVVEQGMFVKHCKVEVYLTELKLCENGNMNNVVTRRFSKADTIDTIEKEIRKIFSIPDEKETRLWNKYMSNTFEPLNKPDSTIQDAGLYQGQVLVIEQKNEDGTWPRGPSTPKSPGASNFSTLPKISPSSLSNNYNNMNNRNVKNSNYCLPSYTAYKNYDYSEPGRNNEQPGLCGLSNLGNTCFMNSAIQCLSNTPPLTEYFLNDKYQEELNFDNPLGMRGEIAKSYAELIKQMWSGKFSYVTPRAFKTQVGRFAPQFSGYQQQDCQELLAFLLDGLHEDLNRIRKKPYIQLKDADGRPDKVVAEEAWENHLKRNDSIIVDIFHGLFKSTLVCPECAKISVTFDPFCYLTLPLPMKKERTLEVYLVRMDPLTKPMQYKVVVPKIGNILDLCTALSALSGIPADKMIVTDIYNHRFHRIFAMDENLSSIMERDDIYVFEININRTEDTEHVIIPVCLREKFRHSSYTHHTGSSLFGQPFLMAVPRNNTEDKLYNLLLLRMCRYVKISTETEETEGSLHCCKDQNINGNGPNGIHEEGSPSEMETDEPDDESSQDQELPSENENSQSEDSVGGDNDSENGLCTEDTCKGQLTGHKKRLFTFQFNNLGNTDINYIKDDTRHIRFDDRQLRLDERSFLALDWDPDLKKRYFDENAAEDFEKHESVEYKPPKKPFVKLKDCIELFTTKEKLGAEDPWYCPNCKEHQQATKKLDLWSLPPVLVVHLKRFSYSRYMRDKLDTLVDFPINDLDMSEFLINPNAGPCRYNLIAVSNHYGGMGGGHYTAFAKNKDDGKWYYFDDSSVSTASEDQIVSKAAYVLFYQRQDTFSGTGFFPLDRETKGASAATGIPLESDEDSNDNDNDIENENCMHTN
# T2: Plin1 (human (endogenous in Mac-ADSCs)) (UniProt O60240)
# T2 sequence: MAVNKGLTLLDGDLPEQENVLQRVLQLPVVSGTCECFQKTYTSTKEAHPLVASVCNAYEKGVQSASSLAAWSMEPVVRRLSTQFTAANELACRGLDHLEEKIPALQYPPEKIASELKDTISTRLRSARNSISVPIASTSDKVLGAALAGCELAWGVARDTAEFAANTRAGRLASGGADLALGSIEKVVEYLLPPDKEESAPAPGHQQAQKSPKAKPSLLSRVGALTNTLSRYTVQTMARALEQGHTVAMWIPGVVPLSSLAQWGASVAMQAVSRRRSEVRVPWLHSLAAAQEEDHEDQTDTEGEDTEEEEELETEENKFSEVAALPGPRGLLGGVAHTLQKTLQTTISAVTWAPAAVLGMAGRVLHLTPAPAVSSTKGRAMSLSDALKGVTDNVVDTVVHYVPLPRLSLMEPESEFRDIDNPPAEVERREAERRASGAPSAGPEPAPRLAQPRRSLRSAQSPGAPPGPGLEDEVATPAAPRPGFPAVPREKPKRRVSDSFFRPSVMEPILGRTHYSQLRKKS
# Legend:
# [1] = target: T1, USP15 (human (endogenous in Mac-ADSCs)); experiment: co-IP; Mac-ADSC lysates immunoprecipitated with USP15 antibody (IgG as control) and protein A/G agarose beads; Western blot for p62 and Plin1
# [2] = target: T2, Plin1 (human (endogenous in Mac-ADSCs)); experiment: co-IP; Mac-ADSC lysates immunoprecipitated with Plin1 antibody (IgG as control) and protein A/G agarose beads; Western blot for USP15 and p62
binding [1],binding [2],Molecule
binds,binds,SQSTM1/p62 (from UniProt Q13501 1-440)
–,binds,"USP15 (enzyme, UniProt Q9Y4E8 1-981) MAEGGAADLDTQRSDIATLLKTSLRKGDTWYLVDSRWFKQWKKYVGFDSWDKYQMGDQNVYPGPIDNSGLLKDGDAQSLKEHLIDELDYILLPTEGWNKLVSWYTLMEGQEPIARKVVEQGMFVKHCKVEVYLTELKLCENGNMNNVVTRRFSKADTIDTIEKEIRKIFSIPDEKETRLWNKYMSNTFEPLNKPDSTIQDAGLYQGQVLVIEQKNEDGTWPRGPSTPKSPGASNFSTLPKISPSSLSNNYNNMNNRNVKNSNYCLPSYTAYKNYDYSEPGRNNEQPGLCGLSNLGNTCFMNSAIQCLSNTPPLTEYFLNDKYQEELNFDNPLGMRGEIAKSYAELIKQMWSGKFSYVTPRAFKTQVGRFAPQFSGYQQQDCQELLAFLLDGLHEDLNRIRKKPYIQLKDADGRPDKVVAEEAWENHLKRNDSIIVDIFHGLFKSTLVCPECAKISVTFDPFCYLTLPLPMKKERTLEVYLVRMDPLTKPMQYKVVVPKIGNILDLCTALSALSGIPADKMIVTDIYNHRFHRIFAMDENLSSIMERDDIYVFEININRTEDTEHVIIPVCLREKFRHSSYTHHTGSSLFGQPFLMAVPRNNTEDKLYNLLLLRMCRYVKISTETEETEGSLHCCKDQNINGNGPNGIHEEGSPSEMETDEPDDESSQDQELPSENENSQSEDSVGGDNDSENGLCTEDTCKGQLTGHKKRLFTFQFNNLGNTDINYIKDDTRHIRFDDRQLRLDERSFLALDWDPDLKKRYFDENAAEDFEKHESVEYKPPKKPFVKLKDCIELFTTKEKLGAEDPWYCPNCKEHQQATKKLDLWSLPPVLVVHLKRFSYSRYMRDKLDTLVDFPINDLDMSEFLINPNAGPCRYNLIAVSNHYGGMGGGHYTAFAKNKDDGKWYYFDDSSVSTASEDQIVSKAAYVLFYQRQDTFSGTGFFPLDRETKGASAATGIPLESDEDSNDNDNDIENENCMHTN"
binds,–,"Plin1 (protein, UniProt O60240 1-522) MAVNKGLTLLDGDLPEQENVLQRVLQLPVVSGTCECFQKTYTSTKEAHPLVASVCNAYEKGVQSASSLAAWSMEPVVRRLSTQFTAANELACRGLDHLEEKIPALQYPPEKIASELKDTISTRLRSARNSISVPIASTSDKVLGAALAGCELAWGVARDTAEFAANTRAGRLASGGADLALGSIEKVVEYLLPPDKEESAPAPGHQQAQKSPKAKPSLLSRVGALTNTLSRYTVQTMARALEQGHTVAMWIPGVVPLSSLAQWGASVAMQAVSRRRSEVRVPWLHSLAAAQEEDHEDQTDTEGEDTEEEEELETEENKFSEVAALPGPRGLLGGVAHTLQKTLQTTISAVTWAPAAVLGMAGRVLHLTPAPAVSSTKGRAMSLSDALKGVTDNVVDTVVHYVPLPRLSLMEPESEFRDIDNPPAEVERREAERRASGAPSAGPEPAPRLAQPRRSLRSAQSPGAPPGPGLEDEVATPAAPRPGFPAVPREKPKRRVSDSFFRPSVMEPILGRTHYSQLRKKS"
